In paper PMC6955937 one finds binding data, which are given here for two molecules.

By UniProt entry, the sequences of proteins in these tests, tags left out. Where a name states a change or a piece, a line headed by the entry shows the natural chain unless it says otherwise.
UniProt P02671: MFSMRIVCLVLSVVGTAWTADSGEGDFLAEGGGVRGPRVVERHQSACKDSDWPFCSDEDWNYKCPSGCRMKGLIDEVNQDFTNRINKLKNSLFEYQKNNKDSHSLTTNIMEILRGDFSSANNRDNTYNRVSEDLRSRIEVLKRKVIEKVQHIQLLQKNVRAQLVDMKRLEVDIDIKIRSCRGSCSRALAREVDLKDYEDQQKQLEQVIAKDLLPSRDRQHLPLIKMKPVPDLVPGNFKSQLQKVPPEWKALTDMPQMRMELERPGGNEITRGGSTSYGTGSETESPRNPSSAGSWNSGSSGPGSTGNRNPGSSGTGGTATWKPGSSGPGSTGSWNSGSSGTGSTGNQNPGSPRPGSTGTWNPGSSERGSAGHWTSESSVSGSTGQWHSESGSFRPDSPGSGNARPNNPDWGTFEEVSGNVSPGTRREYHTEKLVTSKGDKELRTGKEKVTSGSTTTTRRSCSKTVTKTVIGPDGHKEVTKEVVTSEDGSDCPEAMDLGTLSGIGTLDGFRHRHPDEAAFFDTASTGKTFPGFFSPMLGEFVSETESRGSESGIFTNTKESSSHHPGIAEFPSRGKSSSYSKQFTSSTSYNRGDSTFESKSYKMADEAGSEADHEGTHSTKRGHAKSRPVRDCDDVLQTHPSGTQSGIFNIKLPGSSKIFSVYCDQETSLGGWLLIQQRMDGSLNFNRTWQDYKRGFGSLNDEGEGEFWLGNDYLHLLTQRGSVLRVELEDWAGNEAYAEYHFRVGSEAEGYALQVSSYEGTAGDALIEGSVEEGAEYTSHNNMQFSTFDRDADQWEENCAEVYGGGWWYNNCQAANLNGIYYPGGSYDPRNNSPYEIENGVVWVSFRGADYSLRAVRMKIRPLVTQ
UniProt P02675: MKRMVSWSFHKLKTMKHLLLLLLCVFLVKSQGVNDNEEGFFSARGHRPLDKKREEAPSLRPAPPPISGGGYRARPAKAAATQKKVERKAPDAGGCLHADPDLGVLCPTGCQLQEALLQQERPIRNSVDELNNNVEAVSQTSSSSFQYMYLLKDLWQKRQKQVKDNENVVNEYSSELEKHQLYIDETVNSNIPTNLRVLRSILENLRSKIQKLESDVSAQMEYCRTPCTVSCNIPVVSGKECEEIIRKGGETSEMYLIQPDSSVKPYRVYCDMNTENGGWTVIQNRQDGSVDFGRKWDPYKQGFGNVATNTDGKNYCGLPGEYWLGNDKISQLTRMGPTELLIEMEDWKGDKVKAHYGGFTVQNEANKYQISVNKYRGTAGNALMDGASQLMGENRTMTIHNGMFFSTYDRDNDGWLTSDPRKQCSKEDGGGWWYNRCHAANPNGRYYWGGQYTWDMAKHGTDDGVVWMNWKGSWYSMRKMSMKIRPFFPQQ
UniProt P02679: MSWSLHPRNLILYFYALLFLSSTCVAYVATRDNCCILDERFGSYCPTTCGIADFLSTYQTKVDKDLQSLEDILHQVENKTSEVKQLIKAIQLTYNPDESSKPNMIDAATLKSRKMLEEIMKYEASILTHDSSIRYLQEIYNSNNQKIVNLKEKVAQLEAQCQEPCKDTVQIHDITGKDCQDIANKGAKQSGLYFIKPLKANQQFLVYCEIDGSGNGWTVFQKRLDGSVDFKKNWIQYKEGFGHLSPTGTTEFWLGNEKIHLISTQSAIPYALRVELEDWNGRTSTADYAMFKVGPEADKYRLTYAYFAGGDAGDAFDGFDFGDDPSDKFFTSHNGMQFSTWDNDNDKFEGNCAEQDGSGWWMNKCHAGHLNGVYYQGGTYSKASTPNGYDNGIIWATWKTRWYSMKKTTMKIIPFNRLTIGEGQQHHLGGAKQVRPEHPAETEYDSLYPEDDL

In this assay the target is fibrin (insoluble, formed in the wells from coated fibrinogen by thrombin) (human) (UniProt P02671+P02675+P02679). The assay is described as follows: ELISA; fibrin formed in Maxisorp wells from coated fibrinogen (10 µg/mL) by thrombin, fibrinogen coated as control; blocked with 1% BSA in PBST; in vivo biotinylated purified binders applied, detected by streptavidin-HRP; both purified. On the technique in general: In an ELISA, binding on a coated surface is turned into a signal by an enzyme label.

These are yes or no findings as the source states them, for the method shown. Some binding calls cover weakened binding; strength is not graded here. Sequences can lack the tags named with a protein.

LAEAKVLANRELDKYGVSDGYKNWINPADGVAGVKSAIDAILAALP (designed binder, biotin (in vivo biotinylated)) [F11 (TolA-Avi fusion)]: the binding entry is “binds”.

For the molecule LAEAKVLANRELDKYGVSDFYKNLINVAMPVVLVKTAIDGILAALP (designed binder, biotin on the C-terminal Avitag (in vivo biotinylated)) [E7-TolA-Avi], the binding entry is “binds”.
